Experimental data from publication doi:10.1101/2019.12.17.877662.
Construct, isoform or probe ends are uncertain for at least one entry. For part of these data: A negative result means that nothing was seen under these conditions. For part of these data: At least one verdict rests on a figure or table, not on a statement of the authors. For part of these data: Protein sequences can lack the tags named with them. For part of these data: The comparison behind a weaker result is the experiment's own reference, which may not be listed here.

Amino acid sequences for entries named in this document (tags omitted).
UniProt Q5SHY0, whole entry G169C: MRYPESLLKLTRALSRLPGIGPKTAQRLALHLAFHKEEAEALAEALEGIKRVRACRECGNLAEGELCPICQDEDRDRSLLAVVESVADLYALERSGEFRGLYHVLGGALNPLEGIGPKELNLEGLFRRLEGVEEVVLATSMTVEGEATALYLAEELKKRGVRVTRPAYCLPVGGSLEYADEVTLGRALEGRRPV

Key:
TtRecO + TtRecR G169C [1] = test: EMSA; details: shift missing
[2] = tested on: TtRecO (Thermus thermophilus); test: EMSA; details: no band shift
TtRecO + TtRecR [3] = test: EMSA
[4] = target: TtRecR G169C (Thermus thermophilus) (UniProt Q5SHY0); test: BLI; details: ssDNA pre-coated with TtSSB, negligible association
TtSSB + TtRecO + TtRecR = test: BLI; details: RecO and RecR added to TtSSB-coated ssDNA
TtSSB + TtRecO = test: BLI; details: RecO added to TtSSB-coated ssDNA
TtRecO + TtRecR G169C [5] = test: BLI; details: 250 nM RecO with 500 nM RecR G169C, smaller shift than with wild-type RecR
[6] = target: T1, TtRecF (Thermus thermophilus) (UniProt Q5SLM9); test: BLI; details: no RecR
T1 sequence (looked up, limits assumed): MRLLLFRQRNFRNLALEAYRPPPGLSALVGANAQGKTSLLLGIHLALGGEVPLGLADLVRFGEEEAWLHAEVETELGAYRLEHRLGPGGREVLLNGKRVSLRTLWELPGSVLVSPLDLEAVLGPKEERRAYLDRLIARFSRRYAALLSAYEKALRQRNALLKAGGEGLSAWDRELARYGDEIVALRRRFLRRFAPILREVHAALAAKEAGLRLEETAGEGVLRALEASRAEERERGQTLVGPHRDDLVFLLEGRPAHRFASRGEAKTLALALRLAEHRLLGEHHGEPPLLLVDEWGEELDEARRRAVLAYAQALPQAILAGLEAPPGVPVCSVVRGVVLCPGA

[7] = target: TtRecR (Thermus thermophilus) (UniProt Q5SHY0); test: BLI; details: ssDNA pre-coated with TtSSB, negligible association
TtRecO + TtRecR [8] = test: BLI; details: 250 nM RecO with 500 nM RecR
TtRecF + TtRecR = test: BLI

Sequence | binding result (TtRecO + TtRecR G169C [1]) | binding result [2] | binding result (TtRecO + TtRecR [3]) | binding result [4] | binding result (TtSSB + TtRecO + TtRecR) | binding result (TtSSB + TtRecO) | binding result (TtRecO + TtRecR G169C [5]) | binding result [6] | binding result [7] | binding result (TtRecO + TtRecR [8]) | binding result (TtRecF + TtRecR; slight shift, negligible affinity compared to RecOR) | binding result (TtRecF + TtRecR; ssDNA pre-coated with TtSSB, negligible association)
TTTTTTTTTTTTTTTTTTTTTTTTTTTTTTTTTTT [FAM-dT35] | no binding | no binding | binds | – | – | – | – | – | – | – | – | –
GCAATGAAGTACGCTTGCCAGCTGCAGTCATGATTG [biotinylated 36-mer ssDNA] | – | – | – | no binding | binds | binds | binds | no binding | no binding | binds | binds more weakly | no binding
